Laboratory results taken from PubChem BioAssay AID651660 (Broad Institute, 2012).
About 15 (0.8%) of roughly 1,900 compounds were called active.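 The calls were made as follows: active = every replicate shows at least 50% inhibition; inconclusive = mean inhibition at least 50% but some replicate below; inactive = the rest.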 Some of the results follow.

Sequences of proteins named here, by UniProt entry; tags and fusion partners are left off. A change or cut given only in a name is not applied to a line headed by its entry.
UniProt P43351: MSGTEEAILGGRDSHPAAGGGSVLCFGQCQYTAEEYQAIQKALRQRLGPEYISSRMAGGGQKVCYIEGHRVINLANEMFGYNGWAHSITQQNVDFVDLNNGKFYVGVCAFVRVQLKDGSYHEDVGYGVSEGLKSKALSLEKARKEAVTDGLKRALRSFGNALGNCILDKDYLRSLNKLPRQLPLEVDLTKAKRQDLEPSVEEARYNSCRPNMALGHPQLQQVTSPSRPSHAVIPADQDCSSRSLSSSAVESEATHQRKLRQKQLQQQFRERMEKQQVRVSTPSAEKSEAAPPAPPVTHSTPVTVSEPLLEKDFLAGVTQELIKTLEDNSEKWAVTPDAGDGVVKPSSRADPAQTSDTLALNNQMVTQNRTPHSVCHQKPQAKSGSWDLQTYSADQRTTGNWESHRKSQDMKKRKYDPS

Target: DNA repair protein RAD52 homolog (Homo sapiens) (UniProt P43351)
Test: RAD52 ssDNA annealing inhibitors, primary screen, biochemical, FRET, single point (AID 651660);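 also: 0% = median of neutral control wells and 100% = median of positive control wells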
Conditions: Recombinant RAD52 ssDNA annealing, FRET fluorescence, 30 min; at 18.7 µM; stronger effect = higher value

inhibition, inactive:
O=C(CC1(O)C(=O)Nc2ccccc21)c1ccccc1O (stereo not drawn) -5.15%
COc1ccc(C(=O)c2oc3ccc(Br)cc3c2NC(C)=O)cc1 -7.64%
COc1ccccc1C1C(C#N)=C(N)Oc2c1oc(CO)cc2=O (stereo not drawn) -33.9%
Cc1ccc(NC(=O)CSc2nc(O)c(Cc3ccccc3)c(=O)n2-c2ccccc2)cc1 -2.81%
COCCCN1C(=O)C(=O)/C(=C(/O)c2ccc3c(c2)CC(C)O3)C1c1cccnc1 (stereo not drawn) -3.72%
COc1ccc2cc(C(=O)Nc3ccc(S(N)(=O)=O)cc3)sc(=O)c2c1OC 0.252%
CSc1ccc(CN2CCN(CCC(C)C)C(CCO)C2)cc1 (stereo not drawn) -3.32%
Cc1nc(N)nc2c1CCCC2 -8.16%
CC[n+]1c(C)sc2cc(C)ccc21 -6.23%
CCc1cc(=O)oc2cc3occ(-c4ccc(OC)c(F)c4)c3cc12 12%
Cc1ccc(SCC(=O)Nc2nccs2)cc1 -1.33%
COc1ccc(CCN(C)Cc2nc(Cc3ccc(OC)c(OC)c3)no2)cc1OC 4.97%
Nc1nc2c(nc(SCc3ccccc3Br)n2C2OC(CO)C(O)C2O)c(=O)[nH]1 (stereo not drawn) -3.43%
COc1cc(C(=S)N(C)C)ccc1O 4.11%
CCn1c(N2CCN(CC(=O)c3c(C)n(C)c4ccc(OC)cc34)CC2)nc2c1c(=O)[nH]c(=O)n2C -1.17%
CCOc1cc2c3c(c1)C(C)=CC(C)(C)N3C(=O)C2=O 0.854%
COCc1cc(=O)[nH]c(/N=C(\N)Nc2ccc(Oc3ccccc3)cc2)n1 1.27%
N/C(=N\OC(=O)CCCOc1ccc(Cl)cc1Cl)c1ccncc1 3.38%
Cc1ccc2c(c1)OC(=O)CC2c1ccccc1 (stereo not drawn) 2.54%
C#CCOc1ccc2c(C)cc(=O)oc2c1 -7.13%
CC1(C)CC(=O)C(C2=NC(C)(C)Cc3ccccc32)=C(O)C1 -2.42%
O=C1CCCCCN1Cc1ccccc1 5.73%
C/C(=N/N1CCN(Cc2cccc3ccccc23)CC1)c1cccnc1 -3.97%
Cc1cccc(Nc2ncccc2C(=O)O)c1C -1.67%
CS(=O)(=O)NCc1ccc(C(=O)NCc2ccccc2)cc1 -8.87%
COc1cccc(N2C(=O)[C@H]3C(C(=O)c4cnccn4)=NN[C@H]3C2=O)c1 -43.3%
COc1ccc(CNC(=O)N[C@H](C(=O)O)C(C)C)cc1OC 0.684%
CC1(C)CC(CC(=O)Nc2nccs2)(c2ccccc2)CCO1 (stereo not drawn) 5.39%
O=C(NCC1CCCCN1)c1cc(OCC(F)(F)F)ccc1OCC(F)(F)F (stereo not drawn) 3.51%
CC1CCc2cc(F)cc3c(=O)c(C(=O)O)cn1c23 (stereo not drawn) -9.95%
CC(=O)c1c[nH]c2ccc(C)cc2c1=O 0.272%
COc1ccccc1C(=O)N=C1NC(=O)CC2C(=O)NCCN12 (stereo not drawn) 10.2%
COc1cc2ccc(=O)oc2c(O)c1OCC=C(C)C -2.16%
CCCCOc1ccc(OCCCN2CCOCC2)cc1 1.51%
CCOC(=O)C1=C(C)NC(C)=C(C(=O)OC)C1c1cccc([N+](=O)[O-])c1 (stereo not drawn) 6.01%
CC(=Nc1ccccc1)C1=C(O)CCCC1=O 3.08%
O=c1c(C(c2ccccc2)c2c(O)sc3ccccc3c2=O)c(O)sc2ccccc12 -3.03%
CN(CCc1cnn(C)c1)Cc1nc(CC2CC2)no1 -137%
Cc1ccc(N2C(=O)c3ccccc3C2=O)cc1C 3.63%
CCOC(=O)c1ccc2[nH]c(C)c(CCC(C)=O)c(=O)c2c1 0.469%
O=C(NCCc1c[nH]c2ccccc12)OCCSS(=O)(=O)O -13.4%
Cc1ccc(C(=O)O)cc1NC(=O)c1cccs1 6.07%
CC1(C)CC(=O)c2cn3c(nc2C1)nc1ccccc13 -4.04%
O=C(Cc1ccccc1[N+](=O)[O-])NCc1ccncc1 2.84%
Cc1ccc(OCCSc2ncccn2)c(C)c1 -5.16%
CCOC(=O)c1c(O)c2c([nH]c1=O)CCCC2 2.81%
CC(CN1c2ccccc2Sc2ccccc21)N(C)C (stereo not drawn) 7.73%
COc1ccc(NC(=O)N2CCCCC2c2cccnc2)cc1 (stereo not drawn) -0.869%
O=C(N/C(=C/C=C\c1ccccc1)C(=O)N1CCOCC1)c1ccc(Br)cc1 8.04%
COc1ccc([C@H]2[C@H](C(=O)OC(C)(C)C)N3N=Cc4ccccc4C3C23C(=O)c2ccccc2C3=O)cc1OC (stereo partly drawn) -30.8%
NS(=O)(=O)c1cc2c(cc1C(F)(F)F)NC(Cc1ccccc1)NS2(=O)=O (stereo not drawn) 1.98%
CC12COC3(C(=O)Nc4ccc(F)cc4)CC1CCC32C (stereo not drawn) 5.41%
COc1cc(NS(=O)(=O)c2ccc(N)cc2)nc(OC)n1 -8.35%
O=C(O)c1cc(-c2ccc3c(c2)OCO3)nc2ccc(Br)cc12 -5.53%
O=Cc1ccc(N2CCCCC2)cc1 -4.33%
C[C@]12CC[C@H]3[C@@H](CCC4=CC(=O)CC[C@@]43C)[C@@H]1CC[C@@H]2C(=O)CO -7.7%
COc1cc(C=NCC2OCCc3ccccc32)cc(OC)c1 (stereo not drawn) 3.58%
CCOC(=O)c1ccc(N2C(=O)C(CC(=O)NC)N(CCc3ccc(OC)c(OC)c3)C2=S)cc1 (stereo not drawn) 0.676%
O=C(c1ccco1)N1CCCN(Cc2nc(-c3ccc4c(c3)OCO4)no2)CC1 -1.64%
CC(C)c1ccc(OCc2ccc(C(=O)O)o2)cc1 -17.6%
NC(=O)N1c2ccccc2CC(=O)c2ccccc21 -21.3%
CCOC(=O)c1ccc(NC(=S)NCCc2ccccc2F)cc1 -3.96%
CC12CCC(C(=O)N3CCc4ccccc43)(CC1=O)C2(C)C (stereo not drawn) -15.9%

Ordered by length of the SMILES (high to low): some entries from above.
inhibition, inactive:
O=c1c(C(c2ccccc2)c2c(O)sc3ccccc3c2=O)c(O)sc2ccccc12 -3.03%
COc1ccc(CNC(=O)N[C@H](C(=O)O)C(C)C)cc1OC 0.684%
CC1(C)CC(CC(=O)Nc2nccs2)(c2ccccc2)CCO1 (stereo not drawn) 5.39%
